No constants are given. Whether binding was seen depends on the method and setting. Binding seen in cells or lysates may run through a third protein. A yes stands for co-enrichment or nearness to the bait. Other partners may have been found.

By UniProt entry, the sequences of proteins in these tests, tags left out.
UniProt P55258: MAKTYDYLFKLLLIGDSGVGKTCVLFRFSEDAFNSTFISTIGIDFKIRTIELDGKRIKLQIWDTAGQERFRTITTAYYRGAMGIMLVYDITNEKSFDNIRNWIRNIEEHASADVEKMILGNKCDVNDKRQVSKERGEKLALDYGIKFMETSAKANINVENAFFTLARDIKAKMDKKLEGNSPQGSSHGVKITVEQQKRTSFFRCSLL
UniProt Q3TN34: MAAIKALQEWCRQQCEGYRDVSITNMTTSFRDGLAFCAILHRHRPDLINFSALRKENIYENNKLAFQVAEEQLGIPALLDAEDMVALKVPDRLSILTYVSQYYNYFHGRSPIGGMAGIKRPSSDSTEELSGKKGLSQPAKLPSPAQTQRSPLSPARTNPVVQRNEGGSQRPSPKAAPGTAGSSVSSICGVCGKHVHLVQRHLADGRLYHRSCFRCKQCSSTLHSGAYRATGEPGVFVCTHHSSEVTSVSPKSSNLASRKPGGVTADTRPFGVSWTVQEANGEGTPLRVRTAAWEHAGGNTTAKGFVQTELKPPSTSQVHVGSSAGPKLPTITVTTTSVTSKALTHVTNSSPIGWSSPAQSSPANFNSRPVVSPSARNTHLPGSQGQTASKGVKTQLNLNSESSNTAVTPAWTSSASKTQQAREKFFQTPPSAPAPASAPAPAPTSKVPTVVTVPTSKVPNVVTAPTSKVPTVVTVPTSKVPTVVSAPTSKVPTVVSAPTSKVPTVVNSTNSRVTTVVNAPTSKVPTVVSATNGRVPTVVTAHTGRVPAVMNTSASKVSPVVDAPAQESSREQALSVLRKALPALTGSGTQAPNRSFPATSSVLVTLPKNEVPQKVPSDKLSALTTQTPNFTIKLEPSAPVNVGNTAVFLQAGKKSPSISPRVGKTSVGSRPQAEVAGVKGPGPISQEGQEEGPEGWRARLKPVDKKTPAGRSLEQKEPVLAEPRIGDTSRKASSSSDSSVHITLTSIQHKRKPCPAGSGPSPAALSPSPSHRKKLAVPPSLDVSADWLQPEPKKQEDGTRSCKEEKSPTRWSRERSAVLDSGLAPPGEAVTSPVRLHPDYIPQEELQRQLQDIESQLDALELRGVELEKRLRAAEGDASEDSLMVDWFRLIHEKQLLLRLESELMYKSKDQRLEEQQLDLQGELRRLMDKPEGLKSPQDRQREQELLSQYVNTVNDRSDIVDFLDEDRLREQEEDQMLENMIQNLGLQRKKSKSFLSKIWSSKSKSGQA

The assay deals with RAB8A, endogenous in BV2 cells (mouse (endogenous in BV2)) (UniProt P55258). Briefly: affinity purification with mass spectrometry; WT and dKO BV2 cells treated with 1 mM LLOMe 30 min, Dounce homogenised; lysates incubated with anti-RAB8A antibody and Protein A/G beads; washed in 20 mM Tris-HCl pH 7.4, 150 mM NaCl, 0.5% NP-40.

As for “MICALL2, endogenous in BV2 cells (from UniProt Q3TN34 1-1009)”, the binding entry is listed as “binds”.

(Values after paper PMC13324726.)
